# PubChem BioAssay AID540256 (National Center for Advancing Translational Sciences (NCATS), 2011)
# The campaign covered roughly 300,000 compounds. About 3,700 (1.2%) were called active. Inconclusive means that the source gave no clear call. Such entries were picked first, then a sample of the others. Calls come from the whole dose curve; tested in HEK293 cells. Potencies of inconclusive entries are doubtful fits and often do not repeat.
# Assay: qHTS for Inhibitors of binding or entry into cells for Lassa Virus; note: nearly all actives have a fitted effect of over 50% in size
# Conditions: Lassa virus pseudotype entry inhibition, cell reporter; series mostly up to 37.9 µM
# Potency is the fitted concentration of half-maximal effect.
row,SMILES,Potency
1,Cc1ccc(NC(=O)CN(C)C(=O)c2sc3cc(Cl)ccc3c2Cl)cc1,inactive
2,Cc1ccnc(SCc2cn3c(C)cccc3n2)n1,inactive
3,Cc1ccccc1Sc1ncnc2onc(C)c12,"inconclusive: 14.1 µM [inhibitor, partial curve, poor fit]"
4,COCCn1nnnc1C(c1cc2cc(C)ccc2[nH]c1=O)N1CCCCCC1 (stereo unspecified),inactive
5,CCOc1ccccc1CNC(=O)c1cc2n(n1)CCCN(Cc1ccc(C)cc1)C2=O,inactive
6,O=[N+]([O-])c1ccc(N2N=C(c3ccco3)CC2c2ccccc2)cc1 (stereo unspecified),"inconclusive: 8.91 µM [inhibitor, partial curve, poor fit]"
7,CCc1ccccc1NC(=O)Nc1ccc2c(c1)N(CC)C(=O)c1ccccc1S2,inactive
8,CSC1=NC(=O)/C(=C/c2ccc(SC)cc2)S1,"inconclusive: 35.5 µM [inhibitor, single point]"
9,CC(C)Oc1cccc(C(=O)Nc2ncn[nH]2)c1,inactive
10,Cc1ccc(-c2nnc(N3CCN(C(=O)COc4ccccc4)CC3)c3ccccc23)cc1,"inconclusive: 23.1 µM [inhibitor, single point]"
11,COc1ccc(NS(=O)(=O)c2ccc(C)c(C(=O)O)c2)cc1,"inconclusive: 0.164 µM [inhibitor, partial curve, poor fit]"
12,CCCN(CCC)S(=O)(=O)c1ccc(NC(=O)Cc2cccs2)cc1,inactive
13,Oc1ccc(Cl)cc1CNc1ccc(Br)cn1,"inconclusive: 29.1 µM [inhibitor, single point]"
14,O=C(CSc1ccccc1)Nc1ccccc1C(=O)O,"inconclusive: 11.6 µM [inhibitor, partial curve, poor fit]"
15,CC(Sc1ccc(S(=O)(=O)N2CCOCC2)cn1)c1ccccc1Cl (stereo unspecified),active: 8.91 µM
16,COc1cccc(C(=O)c2c[nH]c(C(=O)NCCCN(C)C)c2)c1,"inconclusive: 1.26 µM [inhibitor, single point]"
17,Cc1cc(C)c2nc(N(Cc3cccnc3)C(=O)c3ccc(S(=O)(=O)N(C)C)cc3)sc2c1,inactive
18,CCN(CC)CCCNC(=O)CSc1c2c(nc3cc(Cl)ccc13)CCCC2,"inconclusive: 35.5 µM [inhibitor, single point]"
19,O=C(Nc1cccc(Cl)c1)c1ccc(S(=O)(=O)NCC2CCCO2)cc1 (stereo unspecified),"inconclusive: 5.62 µM [inhibitor, single point]"
20,N#Cc1c(NC(=O)c2cccc3ccccc23)sc2c1CCCC2,active: 0.199 µM
21,Cc1ccc(S(=O)(=O)N[C@H](C(=O)OCC(=O)NC(=O)NCc2ccco2)C(C)C)cc1,"inconclusive: 6.31 µM [inhibitor, single point]"
22,COc1cccc(NC(=O)CSc2nc(=O)n(Cc3ccco3)c3c2CCC3)c1,inactive
23,Cc1ccc(-c2cc(C(=O)N/N=C/c3c(C)nn(-c4ccccc4)c3C)n[nH]2)s1,active: 8.2 µM
24,CC(=NCC1CCCO1)c1c(O)n(-c2ccccc2C)c(=O)[nH]c1=O (stereo unspecified),"inconclusive: 5.62 µM [inhibitor, single point]"

row,SMILES,Potency
1,CCCOC(=O)C1=C(C)NC(=O)NC1c1ccc(Br)s1 (stereo unspecified),"inconclusive: 20 µM [inhibitor, partial curve, poor fit]"
2,Cc1oc(-c2cccs2)nc1CN1CC[C@@](O)(c2ccccc2)[C@H]2CCCC[C@@H]21,inactive
3,Cc1cccc(NC(=O)Cn2nnc(C(=O)Nc3ccc(F)c(Cl)c3)c2N)c1,"inconclusive: 35.5 µM [activator, single point]"
4,S=c1[nH]nc(COc2ccccc2)n1/N=C/C=C/c1ccccc1,"inconclusive: 1.12 µM [inhibitor, full curve]"
5,O=C(/C(=N\Nc1ccc([N+](=O)[O-])cc1)Sc1nnnn1-c1ccccc1)c1ccccc1,inactive
6,Cc1ccc(Nc2nc3c(S(=O)(=O)c4ccccc4)nnn3c3ccsc23)c(C)c1,inactive
7,Cc1cc(C)n2nc(C(=O)NCc3ccccc3)nc2n1,inactive
8,Cc1cccc2sc(N(CCCN(C)C)C(=O)c3ccc(Cl)s3)nc12,"inconclusive: 35.5 µM [inhibitor, single point]"
9,COc1ccc(C(=O)COC(=O)c2ccn(C)n2)cc1,"inconclusive: 11.2 µM [activator, single point]"
10,S=C(c1ccc(-c2ccc(Cl)cc2Cl)o1)N1CCCCC1,inactive
11,Cc1ccc(S(=O)(=O)N2CCN(Cc3noc(CCC(=O)N4CCCCC4)n3)CC2)c(C)c1,inactive
12,CC(=O)NNC(=S)NC(=O)c1ccc(C)cc1,inactive
13,COc1ccc(NC(=O)C2CCCNC2)cc1OCC(C)C (stereo unspecified),"inconclusive: 2.24 µM [inhibitor, partial curve, poor fit]"
14,COc1ccc(C(=O)CSc2nc(-c3ccccn3)nc(C)c2Cl)cc1,"inconclusive: 35.5 µM [inhibitor, single point]"
15,CC1(C)CC(=O)C(C=NCCN2CCN(C(=O)Cc3ccccc3)CC2)=C(O)C1,inactive
16,CC(=O)Nc1ccc(S(=O)(=O)NCCC(=O)OCC(=O)NNC(=O)c2ccccc2)cc1,inactive
17,COc1cc(OC)c(OC)cc1/C=N/NC(=O)c1ccc(CSc2nc(C)cc(C)n2)cc1,inactive
18,COc1cccc(NC(=O)Cn2c(=O)n(-c3ccc(Cl)cc3)c(=O)c3oc4ccccc4c32)c1,inactive
19,Fc1ccc(C2c3cccn3CCN2C(=S)Nc2cccc(Br)c2)cc1 (stereo unspecified),inactive
20,COc1cc2c(cc1OC)C(c1cccs1)N(C(=O)C(C)C)CC2 (stereo unspecified),"inconclusive: 20.6 µM [inhibitor, single point]"
21,COc1ccc2oc(-c3cccc(NC(=O)c4ccc(C#N)cc4F)c3)nc2c1,"inconclusive: 15.8 µM [activator, single point]"
22,CCCCNC(=O)c1ccc2c(c1)NC(=O)C(CS(=O)(=O)Cc1cccc(C)c1)N2 (stereo unspecified),"inconclusive: 15.8 µM [activator, single point]"
23,CCOC(=O)Cc1csc(NC(=O)Nc2cccc(Cl)c2)n1,"inconclusive: 14.6 µM [inhibitor, partial curve]"
24,COc1ccccc1/C=C1\SC(=S)N(CCC(=O)NCCCN2CCOCC2)C1=O,"inconclusive: 35.5 µM [inhibitor, single point]"

# Taken from the results shown (3 entries):
row,SMILES,Potency
17,Cc1cc(C)c2nc(N(Cc3cccnc3)C(=O)c3ccc(S(=O)(=O)N(C)C)cc3)sc2c1,inactive
18,CCN(CC)CCCNC(=O)CSc1c2c(nc3cc(Cl)ccc13)CCCC2,"inconclusive: 35.5 µM [inhibitor, single point]"
19,O=C(Nc1cccc(Cl)c1)c1ccc(S(=O)(=O)NCC2CCCO2)cc1 (stereo unspecified),"inconclusive: 5.62 µM [inhibitor, single point]"

# The list continues.

row,SMILES,Potency
1,CCN(CC(=O)Nc1ccc2c(c1)OCCO2)C(=O)c1ccc(S(=O)(=O)N(C)C)cc1,"inconclusive: 10 µM [activator, partial curve, poor fit]"
2,Cc1cc(C(=O)NCc2ccccc2Br)no1,inactive
3,CCOC(=O)C1CCN(C(=O)COC(=O)CSc2ccc(C(N)=O)cc2[N+](=O)[O-])CC1,"inconclusive: 3.16 µM [activator, single point]"
4,O=C(c1ccco1)n1nc(-c2ccccc2)nc1NCc1ccc(F)cc1,inactive
5,CC(C)=CCc1ccc(O)c(=O)cc1C(C)C,"inconclusive: 15.8 µM [inhibitor, single point]"
6,CCOc1cc(CNCCSc2nnnn2C)cc(Br)c1OCc1ccccc1,"inconclusive: 35.5 µM [inhibitor, single point]"
7,COCCCn1c(SCC(=O)Nc2ccc(C(=O)OC)cc2)nc2ccccc2c1=O,"inconclusive: 6.51 µM [inhibitor, partial curve]"
8,COc1ccc([C@H]2C[C@@H](O)[C@H](n3cc(COC(=O)c4ccccc4)nn3)CN2C(=O)c2cccs2)cc1,"inconclusive: 0.995 µM [inhibitor, partial curve, poor fit]"
9,Cc1cc(C)nc(/N=C(\N)Nc2ccc(CC(=O)OC(C)C)cc2)n1,inactive
10,CCn1c(=O)c2c(O)cc(=O)oc2c2ccccc21,"inconclusive: 18.3 µM [activator, single point]"
11,Cc1c(C(=O)Nc2cccc(C(F)(F)F)c2)sc2nc3n(c(=O)c12)CCCC3,inactive
12,CCCn1c(SCc2ccc(C(=O)OC)o2)nc2ccccc2c1=O,"inconclusive: 39.8 µM [inhibitor, partial curve, poor fit]"
13,C=CCN1C(=O)C(Cc2ccc(C)cc2)S/C1=N/N=C/c1ccco1 (stereo unspecified),"inconclusive: 7.3 µM [inhibitor, partial curve, poor fit]"
14,O=C(COC(=O)CCc1ccc(S(=O)(=O)N2CCOCC2)cc1)Nc1ccccc1[N+](=O)[O-],"inconclusive: 0.447 µM [activator, partial curve, poor fit]"
15,COc1ccc(C(=O)N=c2nc3ccccn3s2)cc1,"inconclusive: 0.411 µM [activator, partial curve, poor fit]"
16,N/C(=N\OC(=O)COc1ccc(Cl)cc1Cl)c1cccnc1,"inconclusive: 4.61 µM [activator, full curve]"
17,COc1ccc(-n2cnnc2SCc2csc(-c3ccccc3)n2)cc1,"inconclusive: 29.1 µM [inhibitor, single point]"
18,COc1cc2nc(/C=C/c3cc(OC)c(OC)c(OC)c3)sc2cc1SC,"inconclusive: 11.2 µM [inhibitor, partial curve, poor fit]"
19,COCCNC(=O)c1ccccc1N(Cc1ccccc1)S(=O)(=O)c1ccc(C)cc1,"inconclusive: 22.4 µM [inhibitor, single point]"
20,CCOc1ccc(CCNC(=O)CCc2c(C)nc3c(-c4ccccc4)c(C)nn3c2C)cc1OCC,inactive
21,O=[N+]([O-])c1cc(Cl)cc2c1nc(NCCO)c1ccccc12,inactive
22,O=C(Nc1ccc(F)cc1)N1CCC(c2nc3c(nnn3Cc3cccc(Cl)c3)c(=O)[nH]2)CC1,"inconclusive: 18.3 µM [inhibitor, single point]"
23,O=C(COC(=O)c1cccs1)Nc1nc(-c2ccccc2)cs1,"inconclusive: 1.26 µM [activator, partial curve, poor fit]"
